PubChem BioAssay AID1259405, NCATS | 2018
The deposit covers about 50,000 reagents; shown is a part drawn at random. Of all reagents, about 4,000 (8%) were called active. 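Mouse siRNA library applied to hamster cells; one well for each siRNA.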 A number with no mark means an inactive call. Reagents against one gene are numbered here. No sequences are given here.

Assay: 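Silenced genes that increase secreted GFP made by CHO cells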 (primary screen)
Cells: Chinese hamster CHO-K1 ovary cells with stable secreted eGFP expression
Reagent: single siRNA against mouse genes, 0.8 pmol siRNA per well (2 µl of 400 nM stock)
Timing: 3 days
Read-out: 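Percent of the per-plate non-targeting control median for intracellular GFP per well by laser scanning cytometry and for cell viability by ATP luminescence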
Scale: GFP, % of control: higher = more GFP per well, higher productivity; viability (ATP), % of control: higher = more viable cells (more ATP)
Active means: 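a knock-down is called active if GFP reaches 120% or more of non-targeting control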

gene symbol | siRNA no. | GFP, % of control | viability (ATP), % of control
Tnnt2 (troponin T2, cardiac) | 1 | 67.5 | 61.5
Tnnt2 (troponin T2, cardiac) | 2 | 45.7 | 42.8
Tnnt2 (troponin T2, cardiac) | 3 | 36.1 | 47.9
Dedd (death effector domain-containing) | 1 | 77.7 | 119
Dedd (death effector domain-containing) | 2 | 68.9 | 85.7
Dedd (death effector domain-containing) | 3 | 149 (active) | 112
Nisch (nischarin) | 1 | 117 | 68.6
Nisch (nischarin) | 2 | 79.6 | 64.6
Nisch (nischarin) | 3 | 85.4 | 90
Trpc2 | 1 | 77 | 67.5
Trpc2 | 2 | 67.7 | 61.8
Trpc2 | 3 | 86.3 | 127
Or52s6 (olfactory receptor family 52 subfamily S member 6) | 1 | 64 | 64.4
Or52s6 (olfactory receptor family 52 subfamily S member 6) | 2 | 84.9 | 65.9
Or52s6 (olfactory receptor family 52 subfamily S member 6) | 3 | 73.2 | 70.3
Usp18 (ubiquitin specific peptidase 18) | 1 | 91.1 | 92.5
Usp18 (ubiquitin specific peptidase 18) | 2 | 37.5 | 39.9
Usp18 (ubiquitin specific peptidase 18) | 3 | 62.7 | 56.8
Tmem9b (TMEM9 domain family, member B) | 1 | 43.8 | 55.7
Tmem9b (TMEM9 domain family, member B) | 2 | 29.8 | 63.2
Tmem9b (TMEM9 domain family, member B) | 3 | 68.1 | 74.2
B9d1 (B9 protein domain 1) | 1 | 47.4 | 55.1
B9d1 (B9 protein domain 1) | 2 | 73.3 | 84.7
B9d1 (B9 protein domain 1) | 3 | 86.3 | 38.1
4933427E11Rik (RIKEN cDNA 4933427E11 gene) | 1 | 72.8 | 88
4933427E11Rik (RIKEN cDNA 4933427E11 gene) | 2 | 78.1 | 109
4933427E11Rik (RIKEN cDNA 4933427E11 gene) | 3 | 80.8 | 98.6
Pdlim4 (PDZ and LIM domain 4) | 1 | 85.7 | 67.2
Pdlim4 (PDZ and LIM domain 4) | 2 | 87.8 | 81
Ap3s1 (adaptor-related protein complex 3, sigma 1 subunit) | 1 | 103 | 43.1
Ap3s1 (adaptor-related protein complex 3, sigma 1 subunit) | 2 | 76 | 52.2
Ap3s1 (adaptor-related protein complex 3, sigma 1 subunit) | 3 | 54.3 | 67.3
Itgam (integrin alpha M) | 1 | 66.6 | 74.9
Itgam (integrin alpha M) | 2 | 66.4 | 79.1
Gabpa (GA repeat binding protein, alpha) | 1 | 99.6 | 80.3
Gabpa (GA repeat binding protein, alpha) | 2 | 45.1 | 52.3
Lrrc3 (leucine rich repeat containing 3) | 1 | 122 (active) | 88.3
Lrrc3 (leucine rich repeat containing 3) | 2 | 79.8 | 83.5
Lrrc3 (leucine rich repeat containing 3) | 3 | 68.7 | 64.9
Rnf183 (ring finger protein 183) | 1 | 42.1 | 22.7
Rnf183 (ring finger protein 183) | 2 | 78.8 | 91.8
Rnf183 (ring finger protein 183) | 3 | 54.9 | 71.6
Ncbp2 (nuclear cap binding protein subunit 2) | 1 | 76.5 | 72
Ncbp2 (nuclear cap binding protein subunit 2) | 2 | 77.4 | 64.5
Ncbp2 (nuclear cap binding protein subunit 2) | 3 | 64.4 | 57.1
Pcdhga1 (protocadherin gamma subfamily A, 1) | 1 | 109 | 75.5
Pcdhga1 (protocadherin gamma subfamily A, 1) | 2 | 62.9 | 61.2
Pcdhga1 (protocadherin gamma subfamily A, 1) | 3 | 51.8 | 60.7
Tm7sf3 (transmembrane 7 superfamily member 3) | 1 | 54.6 | 84.2
Tm7sf3 (transmembrane 7 superfamily member 3) | 2 | 122 (active) | 120
Tm7sf3 (transmembrane 7 superfamily member 3) | 3 | 133 (active) | 140
Fbll1 (fibrillarin-like 1) | 1 | 51.2 | 30
Fbll1 (fibrillarin-like 1) | 2 | 88.4 | 37.3
Fbll1 (fibrillarin-like 1) | 3 | 66.7 | 75.3
Camta2 (calmodulin binding transcription activator 2) | 1 | 188 (active) | 90.4
Camta2 (calmodulin binding transcription activator 2) | 2 | 74.5 | 44.6
Camta2 (calmodulin binding transcription activator 2) | 3 | 48.2 | 86.3

Records above whose gene name begins with I or i:
gene symbol | siRNA no. | GFP, % of control | viability (ATP), % of control
Itgam (integrin alpha M) | 1 | 66.6 | 74.9
Itgam (integrin alpha M) | 2 | 66.4 | 79.1
